Results are given in words; binding and its absence hold for the method and conditions named. Binding seen in cells or lysates may run through a third protein. Some binding calls cover weakened binding; strength is not graded here.
Target: STING (Stimulator of interferon genes) (human (endogenous in THP1)), Q86WV6
Test: co-IP; endogenous STING or STEEP immunoprecipitated from THP1 cells pre-treated with mock or MβCD (2 mM) and then stimulated with cGAMP (50 µg/ml); IgG from sheep/rabbit serum as negative controls; immunoblot
Conditions: remark: other sources report otherwise

B1: TANK-binding kinase 1 (TBK1), Q9UHD2 1-729 (protein)
chain: MQSTSNHLWLLSDILGQGATANVFRGRHKKTGDLFAIKVFNNISFLRPVDVQMREFEVLKKLNHKNIVKLFAIEEETTTRHKVLIMEFCPCGSLYTVLEEPSNAYGLPESEFLIVLRDVVGGMNHLRENGIVHRDIKPGNIMRVIGEDGQSVYKLTDFGAARELEDDEQFVSLYGTEEYLHPDMYERAVLRKDHQKKYGATVDLWSIGVTFYHAATGSLPFRPFEGPRRNKEVMYKIITGKPSGAISGVQKAENGPIDWSGDMPVSCSLSRGLQVLLTPVLANILEADQEKCWGFDQFFAETSDILHRMVIHVFSLQQMTAHKIYIHSYNTATIFHELVYKQTKIISSNQELIYEGRRLVLEPGRLAQHFPKTTEENPIFVVSREPLNTIGLIYEKISLPKVHPRYDLDGDASMAKAITGVVCYACRIASTLLLYQELMRKGIRWLIELIKDDYNETVHKKTEVVITLDFCIRNIEKTVKVYEKLMKINLEAAELGEISDIHTKLLRLSSSQGTIETSLQDIDSRLSPGGSLADAWAHQEGTHPKDRNVEKLQVLLNCMTEIYYQFKKDKAERRLAYNEEQIHKFDKQKLYYHATKAMTHFTDECVKKYEAFLNKSEEWIRKMLHLRKQLLSLTNQCFDIEEEVSKYQEYTNELQETLPQKMFTASSGIKHTMTPIYPSSNTLVEMTLGMKKLKEEMEGVVKELAENNHILERFGSLTMDGGLRNVDCL
binding: binds

Source: paper PMC10980718
